Experimental data as given in patent EP4814012A1.
These are yes or no findings as the source states them, for the method shown. Some binding calls cover weakened binding; strength is not graded here.

By UniProt entry, the sequences of proteins in these tests, tags left out. Residues count along the entry.
UniProt P24394, residues 26-232: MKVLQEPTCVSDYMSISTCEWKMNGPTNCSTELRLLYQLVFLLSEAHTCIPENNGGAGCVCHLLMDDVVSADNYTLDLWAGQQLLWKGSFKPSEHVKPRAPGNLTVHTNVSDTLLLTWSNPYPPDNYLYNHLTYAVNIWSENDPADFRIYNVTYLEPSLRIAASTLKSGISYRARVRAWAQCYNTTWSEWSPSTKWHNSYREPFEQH

Assays:
[1] = biological target: hIL-4Rα.ECD (human) (UniProt P24394); assay: SPR (Biacore 8K), hIL-4Rα.ECD analyte
[2] = biological target: hIL-4Rα.ECD (human) (UniProt P24394); assay: SPR (Biacore 8K), captured antibody, sequential injection of hIL-4Rα then hTSLP (simultaneous binding)

binding [1]: binds | binding [2]: binds
B1: MTM (bispecific antibody, human IgG2, lambda)
heavy: QMQLVESGGGVVQPGRSLRLSCAASGFTFRTYGMHWVRQAPGKGLEWVAVIWYDGSNKHYADSVKGRFTITRDNSKNTLNLQMNSLRAEDTAVYYCARAPQWELVHEAFDIWGQGTMVTVSSASTKGPSVFPLAPCSRSTSESTAALGCLVKDYFPEPVTVSWNSGALTSGVHTFPAVLQSSGLYSLSSVVTVPSSNFGTQTYTCNVDHKPSNTKVDKTVERKCCVECPPCPAPPVAGPSVFLFPPKPKDTLMISRTPEVTCVVVDVSHEDPEVQFNWYVDGVEVHNAKTKPREEQFNSTFRVVSVLTVVHQDWLNGKEYKCKVSNKGLPAPIEKTISKTKGQPREPQVYTLPPSREEMTKNQVSLTCLVKGFYPSDIAVEWESNGQPENNYKTTPPMLDSDGSFFLYSKLTVDKSRWQQGNVFSCSVMHEALHNHYTQKSLSLSPGKGGGGSGGGGSQVQLVQSGAEVKKPGASVKVSCKASGYTFTTYYIYWVRQAPGQCLEWMGGSNPSTGGTLDNEKFKTRVTMTVDKSTSTAYMELSSLRSEDTAVYYCTRSGRYAPFTYWGCGTLVTVSSGGGGSGGGGSGGGGSGGGGSDIQMTQSPSSLSASVGDRVTITCKASQDVSTSVAWYQQKPGKAPKLLIYSASYRFTGVPSRFSGSGSGTDFTFTISSLQPEDFATYYCQHYSTTPFTFGCGTKLEIK
light: SYVLTQPPSVSVAPGQTARITCGGNNLGSKSVHWYQQKPGQAPVLVVYDDSDRPSWIPERFSGSNSGNTATLTISRGEAGDEADYYCQVWDSSSDHVVFGGGTKLTVLGQPKAAPSVTLFPPSSEELQANKATLVCLISDFYPGAVTVAWKADSSPVKAGVETTTPSKQSNNKYAASSYLSLTPEQWKSHRSYSCQVTHEGSTVEKTVAPTECS
